In patent US20190062425A1 (BETH ISRAEL DEACONESS MEDICAL CENTER, published 2019):
No constants are given. Whether binding was seen depends on the method and setting. Some entries that bind do so weakly or less than the wild type.

Legend:
[1] = target: T1, human transmembrane-4 L six family member-1 (TM4SF1), full-length (human) (UniProt P30408); assay: immunocytochemistry
T1 sequence (N-glycosylated at N129 and N159 (ECL2), looked up): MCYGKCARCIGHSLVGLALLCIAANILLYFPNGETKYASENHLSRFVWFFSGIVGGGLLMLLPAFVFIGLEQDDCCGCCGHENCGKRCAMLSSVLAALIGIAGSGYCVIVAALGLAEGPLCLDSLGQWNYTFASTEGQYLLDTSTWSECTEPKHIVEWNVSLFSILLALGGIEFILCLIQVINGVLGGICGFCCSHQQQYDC

[2] = target: T1, human transmembrane-4 L six family member-1 (TM4SF1), full-length (human); assay: immunostaining of HUVEC
[3] = target: T1, human transmembrane-4 L six family member-1 (TM4SF1), full-length (human); assay: immunoblot of HUVEC extracts
[4] = target: T1, human transmembrane-4 L six family member-1 (TM4SF1), full-length (human); assay: epitope mapping by immunocytochemistry
[5] = target: T1, human transmembrane-4 L six family member-1 (TM4SF1), full-length (human); assay: immunofluorescence of human tissue sections
[6] = target: T1, human transmembrane-4 L six family member-1 (TM4SF1), full-length (human); assay: immunocytochemistry on HEMn cells transduced with FL-TM4SF1

Measured: binding

B1: 8G4 antibody (anti-TM4SF1 mouse monoclonal antibody produced by hybridoma mouse cell line 8G4-5-13-13F, PTA-120523) (antibody, V domains shown)
VH: EVILVESGGGLVKPGGSLKLSCAASGFTFSSFAMSWVRQTPEKRLEWVATISSGSIYIYYTDGVKGRFTISRDNAKNTVHLQMSSLRSEDTAMYYCARRGIYYGYDGYAMDYWGQGTSVTVSS
VL: AVVMTQTPLSLPVSLGDQASISCRSSQSLVHSNGNTYLHWYMQKPGQSPKVLIYKVSNRFSGVPDRFSGSGSGTDFTLKISRVEADDLGIYFCSQSTHIPLAFGAGTKLELK
notes: Mouse monoclonal antibody from a hybridoma; both have the length of variable domains; also called anti-TM4SF1 antibody 8G4
binds: all assays above
